Laboratory results: paper doi:10.1101/2021.08.25.457671
Results are given in words; binding and its absence hold for the method and conditions named. Binding seen in cells or lysates may run through a third protein. Some results given as binding are weak or reduced against the parent protein; the word gives no strength.

Target: T1, mammalian Lonp-1, P36776
T1 chain: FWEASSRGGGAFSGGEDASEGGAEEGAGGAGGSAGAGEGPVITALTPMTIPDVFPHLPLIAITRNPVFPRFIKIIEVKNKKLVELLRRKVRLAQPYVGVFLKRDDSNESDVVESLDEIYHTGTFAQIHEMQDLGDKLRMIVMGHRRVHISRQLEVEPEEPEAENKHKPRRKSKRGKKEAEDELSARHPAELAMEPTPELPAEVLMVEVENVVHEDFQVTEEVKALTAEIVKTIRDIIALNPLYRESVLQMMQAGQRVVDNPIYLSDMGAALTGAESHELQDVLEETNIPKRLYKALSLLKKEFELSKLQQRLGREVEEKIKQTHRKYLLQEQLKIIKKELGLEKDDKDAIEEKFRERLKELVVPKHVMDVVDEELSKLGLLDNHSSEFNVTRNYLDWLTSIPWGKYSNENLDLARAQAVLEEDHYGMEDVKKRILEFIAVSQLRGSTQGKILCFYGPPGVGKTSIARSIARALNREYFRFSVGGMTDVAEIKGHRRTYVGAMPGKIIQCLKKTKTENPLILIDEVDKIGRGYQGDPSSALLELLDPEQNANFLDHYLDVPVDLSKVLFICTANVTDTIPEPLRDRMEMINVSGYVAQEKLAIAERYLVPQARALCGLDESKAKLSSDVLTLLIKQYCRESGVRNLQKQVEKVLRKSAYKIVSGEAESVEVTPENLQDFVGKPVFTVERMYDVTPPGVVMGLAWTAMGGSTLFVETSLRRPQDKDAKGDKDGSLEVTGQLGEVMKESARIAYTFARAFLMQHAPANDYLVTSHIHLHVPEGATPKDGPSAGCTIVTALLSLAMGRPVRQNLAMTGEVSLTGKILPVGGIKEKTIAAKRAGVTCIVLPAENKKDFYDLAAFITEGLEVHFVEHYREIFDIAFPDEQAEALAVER
Assay: co-IP
Settings: remark: other sources report otherwise

binding: binds
B1: Hsp110, Q92598 1-858 (protein)
chain: MSVVGLDVGSQSCYIAVARAGGIETIANEFSDRCTPSVISFGSKNRTIGVAAKNQQITHANNTVSNFKRFHGRAFNDPFIQKEKENLSYDLVPLKNGGVGIKVMYMGEEHLFSVEQITAMLLTKLKETAENSLKKPVTDCVISVPSFFTDAERRSVLDAAQIVGLNCLRLMNDMTAVALNYGIYKQDLPSLDEKPRIVVFVDMGHSAFQVSACAFNKGKLKVLGTAFDPFLGGKNFDEKLVEHFCAEFKTKYKLDAKSKIRALLRLYQECEKLKKLMSSNSTDLPLNIECFMNDKDVSGKMNRSQFEELCAELLQKIEVPLYSLLEQTHLKVEDVSAVEIVGGATRIPAVKERIAKFFGKDISTTLNADEAVARGCALQCAILSPAFKVREFSVTDAVPFPISLIWNHDSEDTEGVHEVFSRNHAAPFSKVLTFLRRGPFELEAFYSDPQGVPYPEAKIGRFVVQNVSAQKDGEKSRVKVKVRVNTHGIFTISTASMVEKVPTEENEMSSEADMECLNQRPPENPDTDKNVQQDNSEAGTQPQVQTDAQQTSQSPPSPELTSEENKIPDADKANEKKVDQPPEAKKPKIKVVNVELPIEANLVWQLGKDLLNMYIETEGKMIMQDKLEKERNDAKNAVEEYVYEFRDKLCGPYEKFICEQDHQNFLRLLTETEDWLYEEGEDQAKQAYVDKLEELMKIGTPVKVRFQEAEERPKMFEELGQRLQHYAKIAADFRNKDEKYNHIDESEMKKVEKSVNEVMEWMNNVMNAQAKKSLDQDPVVRAQEIKTKIKELNNTCEPVVTQPKPKIESPKLERTPNGPNIDKKEEDLEDKNNFGAEPPHQNGECYPNEKNSVNMDLD
